In all, about 33,000 sequences were measured (“E-score (-0.5 to 0.5)”: median about -0.0034, highest 2% from about 0.25 on). Some of the results follow.
target: T1, Yap3 (UniProt P38749); test: PBM E-score (8-mer binding enrichment) (E-score (-0.5 to 0.5)); higher = stronger / more preferred TF binding; conditions: protein concentration: 100 nM; construct: GST-full length
T1 sequence: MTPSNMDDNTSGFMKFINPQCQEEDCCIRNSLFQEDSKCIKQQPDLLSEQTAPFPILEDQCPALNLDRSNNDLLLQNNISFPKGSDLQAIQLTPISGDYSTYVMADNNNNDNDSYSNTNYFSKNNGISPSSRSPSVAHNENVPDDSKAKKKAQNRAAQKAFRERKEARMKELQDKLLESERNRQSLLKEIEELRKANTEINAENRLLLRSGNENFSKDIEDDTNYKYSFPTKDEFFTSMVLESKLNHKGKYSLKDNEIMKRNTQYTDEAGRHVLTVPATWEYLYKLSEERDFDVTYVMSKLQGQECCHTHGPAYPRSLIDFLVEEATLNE
Outline: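 Each ungapped eight-base word and its reverse complement, pooled, received an E-score from the Universal PBM Analysis Suite. Underlying scans, normalised with masliner, recorded fluorescent anti-GST bound to GST-tagged yeast transcription factors. These were applied at about 100-200 nM to universal all-10-mer Agilent arrays double-stranded by primer extension.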

Sequence	PBM E-score
AGGGTCAT	-0.133
GAAAGCAA	0.248
ACACGATA	0.116
AGGTAGGA	-0.0238
GACCTAAA	-0.00699
CTAGGGAG	-0.174
TGGTCCAA	-0.121
TCACCTAA	0.03
CATTCGCA	0.0508
GAATGTGA	0.0268
AGTTGGAA	0.0377
AATCGGTA	0.121
AGATCCAG	-0.0679
ATCAGTTC	-0.0212
AATCGCGT	0.156
CTCCACTA	0.0329
GAGAGCTC	-0.227
ATTAATAG	0.228
AGTCGCAA	0.0524
CTCAAAGC	0.00619
CCCACCAA	0.0694
AAGGCCCT	-0.0687
GTCAGGAA	0.0509
CAGTGTCC	-0.161
CCACCTTA	0.0924

Sequence	PBM E-score
ATAGCTTG	-0.021
GTAAAATA	0.117
ACGCTGAT	-0.0611
AACCGGCT	-0.112
CGATATCC	0.146
AATGAGCG	0.203
ATACTGCC	0.0316
GCTTAAAA	0.0767
CATTTCCA	0.155
GCGTCCAC	-0.303
AATTGGTG	0.204
ACGGCGTC	-0.137
CGTATAAC	-0.0132
AGCACCCC	-0.178
GGACATAA	0.0711
CTCGGGGA	-0.116
AAGACATA	0.248
AACAAGTC	0.0497
CTCCAGAA	-0.194
ACATCTAT	0.178
AGTATTAA	0.186
CTCGCAAG	0.0168
ACCCAGGC	-0.103
CCGCCGAA	-0.016
CAACTGAA	-0.159

Sequence	PBM E-score
ATGGGGCA	-0.0507
GGAGATCA	0.00849
CGCGGGAA	0.103
GTGAGTTA	-0.0397
AGTGATGA	-0.117
TAGTAAGA	0.227
ATAATAAG	0.194
CTCGCCCC	-0.153
GTGTTGTA	-0.0537
CAACACCC	-0.142
CCTCACTC	-0.0175
CGGCGGTC	-0.302
AGGCTAAC	-0.0146
TAGAATCA	-0.113
ACTAGTGA	-0.129
ATTAACCC	0.026
CCATCCTA	-0.0259
CGGGCCAC	-0.193
CCCATGTC	-0.146
CTCCCTTA	-0.197
AATGCGAC	0.106
CACGGGAC	-0.138
GCCCAAGC	-0.053
AAAACTTG	0.108
CTAAATTA	0.212

Five records drawn at random from the list so far:
Sequence	PBM E-score
CCCATGTC	-0.146
AAGGCCCT	-0.0687
GAATGTGA	0.0268
CAGTGTCC	-0.161
GACCTAAA	-0.00699

Quoted from the listing.
For PBM E-score, AGGCTAAC shows -0.0146
For PBM E-score, TAGAATCA shows -0.113
For PBM E-score, CAACACCC shows -0.142
For PBM E-score, ATGGGGCA shows -0.0507

Next part.

Sequence	PBM E-score
GCAGCCGC	-0.179
AGTAGCGC	0.0524
GCTTGGAC	-0.0766
GGTCGCCA	-0.186
ACGCGTAG	0.0219
CATCACGG	0.121
GGTATGGA	0.034
AACAACCA	0.184
CTCCATCC	-0.186
CGATGTAA	0.065
AACTGACC	-0.0946
GGATCTAC	-0.147
ATACAAGA	0.0503
TCGAAAGA	0.0441
AAGGTGCT	0.034
CCCAATGA	-0.0591
CTAAGCAC	0.0111
GACTAGGC	-0.0571
AGAGCACT	-0.00562
CGGGTATA	0.0375
AGGGTCGG	-0.322
AGTGTATC	0.0463
CGCAAGTC	-0.139
ATGCGTAA	0.195
TATACCCA	-0.056

Sequence	PBM E-score
CCCTTGCG	-0.242
AGTGAGAT	0.0269
AATTGATC	-0.0282
AGTCCCCG	-0.213
GCCCACTA	-0.0504
AGCCTATA	0.138
CCGCTGGC	-0.226
GAAACACC	0.0336
CATAAGGG	0.129
CATTTGAA	0.00597
CTCTCCGC	-0.0263
AACTGATA	0.148
CTGCAACC	-0.0751
GTACTTTA	0.166
CCCAGCCG	-0.261
CACTGTCC	-0.12
ACACTCGA	0.0243
GCCGAGCC	-0.0118
AATAGATG	0.0851
GTTAGTTA	0.169
CGTGCTGC	-0.132
CGGGCACC	-0.331
AAACTCTG	0.0135
ATTTTCTA	0.176
GGTACCAA	0.0529

Sequence	PBM E-score
AAAAGTTC	0.178
CTACCCGA	-0.00986
ATGACCGA	-0.00271
AGAGGCGG	-0.0723
TAGTGAAA	-0.0103
CCCTAGGC	-0.0928
CGTACTAG	0.0559
GGACCTTA	-0.152
AGCTGCTC	-0.0976
AAAGGTGC	-0.0396
GGGACTAA	-0.168
CACGCAAA	0.0585
AATTTCCA	0.267
GGTAGGCA	-0.101
ATCGTACC	-0.0847
AAGTCCAA	0.0286
CAGCTTAC	0.157
AAAAGGGC	-0.108
AGGTAGAA	0.0565
GCGCATCA	0.103
GCACGGAA	-0.0926
CGAGTTGA	0.0975
GGACCAGA	-0.117
CGAGCTGC	-0.0374
ACTTTCTA	0.0796

For convenience, some entries already given:
Sequence	PBM E-score
CTACCCGA	-0.00986
ATGACCGA	-0.00271

Remaining list, next part.

Sequence	PBM E-score
GAAACAAC	-0.0477
ACATACGG	0.0295
GGTCTAAA	-0.00283
CTCCACCA	-0.233
TAAGACCA	0.0423
CGTCGGAC	-0.2
TACAGGGA	-0.153
AAGCGACC	0.0995
ATGCTTCA	-0.0284
GGAGGACA	-0.0888
AATGGCAT	0.222
AATACTGA	0.0455
AACGACCA	0.0973
AGAACTGG	-0.00913
GGGGGCTA	-0.41
CTACGACC	-0.0402
AGCTCCGG	-0.126
CACTCCTC	-0.171
CAGGTCTA	0.00211
GAGGATGA	0.169
AGACCATC	-0.0467
AACCATTA	0.242
AGGAGCTC	-0.235
CCGGTCTA	-0.235
GGACCCAC	-0.114

Sequence	PBM E-score
CACGAGCG	-0.197
CAGTGTAA	0.165
GGCACAAA	-0.0251
GACAAAGA	0.149
ATTTAGAA	0.0948
CCGTACCG	-0.208
CGGCCTGA	-0.359
AAGCGGCC	-0.224
CTAGACCA	-0.037
CTGGTCAA	0.00469
ACGGAAGA	0.131
ATACACCG	0.0328
ATATTATA	0.186
CGCGAAAA	0.0354
CTTGGAGA	0.0246
CTTTTGAA	0.04
CCTAATCG	0.189
CTAATGAA	0.21
AAAGATAG	0.094
AACGCATC	-0.00198
AAGTCTCA	-0.101
ACTAACAC	0.125
AGTTAAGC	0.0495
GTCCAGCA	-0.0978
CTTCTCCC	-0.29

Sequence	PBM E-score
AGTCTCGA	-0.00667
GACTCATA	-0.0271
AGAAATCG	0.0606
TCGCGTAA	0.302
CGGCGCTC	-0.0618
CTGATACC	0.0477
AACGGAAA	0.171
CAGGCCCG	-0.394
CACTCACG	0.0307
ACATACTG	-0.024
ATAATACG	0.292
CGGTGCTC	-0.0257
AACGCTCT	-0.216
AGGAGGTC	-0.328
CAGCCCAG	-0.377
CCCCGTTA	-0.058
CGATCTTC	-0.0379
AACTACGG	-0.153
GCGATTCC	-0.036
ACATACCT	0.029
GTACTGAC	-0.128
AAATTTGA	0.203
CTTACAAG	-0.00238
GCCGCGGA	-0.0953
CTAGTCAG	-0.14

Sequence	PBM E-score
CACCCGCG	0.0334
CGGGCAGC	-0.156
AGCCGTTA	0.082
GCGGGTCA	-0.00762
GAGACTAA	0.147
TATTCCCA	0.104
CAGAGTCA	-0.289
AGATGGTC	-0.12
TATAGGGA	-0.0201
GGCCCTAA	-0.0404
CGGATCCG	0.022
CTTACTCC	0.0715
GTGGCAAC	-0.0769
ATGGGTAA	0.0549
CCGCCCCA	-0.121
AGTGTCTA	-0.035
CGTAATCA	0.349
ACTCCCCA	-0.176
ATTCCTCG	0.104
AACCGTAT	-0.141
ACTTACAA	0.253
AAGAGTAA	0.0872
CAACACCG	-0.142
CTATAGTC	-0.132
CCTAAGGA	-0.00257

Sequence	PBM E-score
AGGCGACT	-0.111
AGAAAGCG	0.0699
ACTTCGGA	0.193
CCCTATGC	-0.138
AACCACTG	0.101
AAAAGGAC	0.0381
ACCGACCC	-0.0819
ACCGCAGT	0.0979
GAGCCCGA	-0.139
ACCTGAGA	0.00243
AGCCCGCA	-0.123
AATGATTC	0.115
CCCTCTAC	-0.199
AAATGCCG	0.113
CCGAACCA	-0.116
TCGGAGCA	-0.116
ATTGAAGG	-0.141
CCTGTGAC	-0.171
CCGGCATC	-0.253
AAGCTGAC	-0.0841
CAAACGGC	-0.0824
AATAGCGG	-0.0993
GAGTATTA	0.164
GCAGAGTA	0.0526
CCTTCGTC	-0.0719

Sequence	PBM E-score
CTCCGCCC	-0.229
GAGATTGC	-0.121
AGCGTAGC	-0.154
ATTCTCGG	0.147
CTTTGGAC	-0.0335
CAAGCCTA	-0.043
GCACAAGA	0.116
TCCCGAGA	-0.225
CAAGGTCC	-0.202
AGCTTTCG	-0.263
ACCAACGA	-0.00444
GTCACCAC	-0.0507
GATTACTA	0.225
AAACCCCG	-0.0402
ACGAGCAT	-0.0172
CCGTACTA	0.168
GCGGGCTA	-0.216
CACTAGCG	-0.128
CCAGGGTA	-0.165
ACGCTTAC	0.00604
GGACCAAA	0.0346
ACGAGTCC	-0.152
GGCCATAC	0.00964
CCCACTCA	-0.104
CCTAGTTA	0.0802

Sequence	PBM E-score
CATCGTAG	-0.23
AGGTATCA	0.0264
ATCTATCC	0.00162
ATTGTAGC	0.0224
CATATCAC	0.114
GTAACCCA	0.217
AGACTTAG	-0.166
ACGACACG	0.0948
ACGTTACG	0.131
TATCCCAA	0.0252
TACATTGA	0.0621
AGTTCGGC	-0.053
TATGAGGA	-0.00735
ACTAAGAA	0.205
AGGAACAA	0.0752
AATAGCGC	0.144
CTCCAGCA	-0.129
ATGACCAA	0.136
AAAGGACC	-0.0983
CTCTGAGC	-0.248
GGTCCACA	-0.153
AACACTCG	0.117
CTGGCCCC	-0.278
CTACTGGC	0.00022
GTAGTCAA	-0.0796

Sequence	PBM E-score
CGGGAACC	-0.303
AAGTGTTC	0.141
AAGTATGA	0.0367
ATTGCTAC	0.0125
AAGAGAAT	0.204
TCGTAAGA	-0.087
GTGTAACA	-0.00489
CCGAACAC	0.107
ACAAGGTA	0.0175
AGTTAAAA	0.221
GCCCCTAC	-0.189
GGATAGCC	-0.0918
ACCTTTAA	0.0751
GTATATAC	0.0969
AAACTCCG	0.031
CATTAAGC	-0.0544
CTGTCATC	-0.0204
TCGACGCA	-0.0607
AGGGTGTA	0.0414

Reference: the supplement of paper PMC3334620
